Data as given in PubChem BioAssay AID1259424 (University of Nebraska Medical Center, 2018).
Shown is a random part of about 14,000 reagents. 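Higher correlation or smaller distance means closer resemblance to KSR1 loss; control wells, including KSR1 knockdowns, recur on many plates.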 Not all columns of the deposit are shown. Not given: the time to read-out.

- Test: 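Seek colon cancer survival genes behaving like KSR1, using a six-gene signature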 (primary screen)
- System: human HCT116 colon cancer cells
- Knock-down reagent: siRNA pool against human genes, 50 nM
- Read-out: 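Log2 levels of six mRNAs (branched-DNA multiplex), adjusted by two reference genes and the non-targeting median, then scored against the average KSR1 knockdown pattern as Pearson r and euclidean distance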
- Scale: mean correlation with KSR1 profile and KSR1 correlation: higher = expression change more like KSR1 knockdown; mean distance from KSR1 profile: higher = expression change less like KSR1 knockdown

target	mean correlation with KSR1 profile	mean distance from KSR1 profile	KSR1 correlation, replicate 1	KSR1 correlation, replicate 2
TAF9	-0.0272	1.72	0.151	0.582
ERI3	-0.737	1.62	-0.825	-0.899
CCR10	0.0364	3.21	0.0394	0.232
TARS2	0.381	1.32	-0.207	0.529
MAOA	-0.0483	1.55	-0.131	-0.000815
MAP4K5	-0.205	2.74	-0.24	-0.239
TUFM	-0.466	2.89	-0.357	-0.487
NMUR1	0.711	1.41	0.676	0.712
MACROD1	0.129	0.903	-0.609	-0.72
HMGCR	0.225	1.62	0.352	0.0773
TAF5L	-0.242	1.89	-0.137	0.0992
LHX5	0.175	1.4	0.549	0.496
TIPE2	0.546	1.75	0.573	0.509
SUCLG2	0.291	2.62	-0.199	0.644
MDH2	-0.0571	3.37	-0.0685	-0.26
ELP6	0.367	1.55	0.0323	0.351
CYTIP	-0.569	1.66	-0.61	-0.254
COL2A1	0.179	2.55	0.0127	0.115
TSHZ3	-0.485	2.54	-0.497	-0.501
EP400	-0.142	5.86	-0.0805	-0.214
DTNA	0.0193	1.89	0.0506	-0.292
CDK15	-0.289	3.87	-0.165	-0.378
MEP1B	-0.385	4.74	-0.427	-0.408
CKB	0.452	1.19	0.349	0.513
GDF9	0.149	2.14	0.169	0.0881
SLC6A9	-0.301	2.2	-0.43	-0.37
GAB2	-0.0916	1.68	0.354	-0.174
SPATA6L	-0.142	3.27	0.0476	-0.109
NOG	-0.282	2.58	-0.146	-0.506
EEF1A2	0.711	1.44	0.961	0.706

The list goes on; the last 5 above are carried over.
target	mean correlation with KSR1 profile	mean distance from KSR1 profile	KSR1 correlation, replicate 1	KSR1 correlation, replicate 2
SLC6A9	-0.301	2.2	-0.43	-0.37
GAB2	-0.0916	1.68	0.354	-0.174
SPATA6L	-0.142	3.27	0.0476	-0.109
NOG	-0.282	2.58	-0.146	-0.506
EEF1A2	0.711	1.44	0.961	0.706
CEACAM6	-0.0916	2.46	0.125	0.193
PDIA5	0.331	2.97	0.344	0.362
PTPN9	-0.485	1.57	-0.241	-0.862
KHNYN	0.216	4.06	0.278	0.292
MIB1	0.0302	1.08	-0.15	-0.0341
GNG13	0.224	1.86	0.203	0.494
NTN1	-0.00104	1.14	0.399	-0.13
RASAL2	0.0659	3.11	0.255	0.0933
RLBP1	-0.838	1.68	-0.775	-0.614
PRDX1	0.17	1.27	0.305	-0.19
YES1	-0.203	1.67	0.489	-0.677
RXFP3	0.228	2.19	0.279	0.264
TRMT112	-0.471	2.46	-0.504	-0.499
TGFBR2	0.00493	2.04	0.376	-0.076
ZNF3	-0.103	1.64	0.0673	-0.221
ODF2L	0.0246	1.33	-0.193	0.256
AMMECR1	0.666	1.68	0.47	0.73
KIAA1328	-0.748	4.77	-0.665	-0.519
KIF3A	-0.34	1.63	-0.232	-0.444
RET	0.37	3.17	0.682	-0.0344
KCNQ3	-0.151	2.25	-0.193	-0.162
HSP90AA1	0.869	1.77	0.821	0.824
PLN	-0.477	1.53	-0.574	-0.6
ST3GAL5	0.252	1.63	0.253	0.158
HDAC8	-0.0585	1.78	0.0539	0.036
ZNF155	0.194	1.79	0.189	0.118
RNF38	0.466	1.33	0.15	0.54
LBHD1	-0.377	1.76	-0.373	-0.527
FBXO21	-0.0811	2.47	-0.158	-0.105
APH1B	0.606	3.5	0.512	0.561
HBA1	0.0764	1.67	-0.513	0.0389
FAM30A	0.00599	3.41	0.101	-0.017
NLRP10	0.511	1.43	0.532	0.45
